Measurements reported in the supplement of paper PMC9233669.
This sample is rich in variants without activity.

Assays:
biotinyl-Leu-oxazolone = experiment: self-aminoacylation, catalytic enhancement (BLO) (fold over background); higher = more active; k-Seq, kA / k0A0; sequences stand for … in GGGAAUGGAUCCACAUCUACGAAUUC…UUCACUGCAGACUUGACGAAGCUG
Procedure, shortened: (§1)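 Mutagenized RNA pools (0.43 μM; 21-nt variable region) were treated with 2–1250 μM of each biotinyl-aminoacyl-oxazolone. Conditions were 50 μL HEPES/NaCl/KCl/MgCl2/CaCl2 buffer, 5% acetonitrile, pH 6.9–7.0, room temperature, 90 minutes. Catalytic enhancement, the median kA relative to the uncatalyzed rate, was derived from streptavidin capture, qPCR and Illumina sequencing.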

biotinyl-Ile-oxazolone = experiment: self-aminoacylation, catalytic enhancement (BIO) (fold over background); higher = more active; k-Seq, kA / k0A0; sequences stand for … in GGGAAUGGAUCCACAUCUACGAAUUC…UUCACUGCAGACUUGACGAAGCUG
Procedure, shortened: as §1

biotinyl-Phe-oxazolone = experiment: self-aminoacylation, catalytic enhancement (BFO) (fold over background); higher = more active; k-Seq, kA / k0A0; sequences stand for … in GGGAAUGGAUCCACAUCUACGAAUUC…UUCACUGCAGACUUGACGAAGCUG
Procedure, shortened: as §1

biotinyl-Val-oxazolone = experiment: self-aminoacylation, catalytic enhancement (BVO) (fold over background); higher = more active; k-Seq, kA / k0A0; sequences stand for … in GGGAAUGGAUCCACAUCUACGAAUUC…UUCACUGCAGACUUGACGAAGCUG
Procedure, shortened: as §1

biotinyl-Met-oxazolone = experiment: self-aminoacylation, catalytic enhancement (BMO) (fold over background); higher = more active; k-Seq, kA / k0A0; sequences stand for … in GGGAAUGGAUCCACAUCUACGAAUUC…UUCACUGCAGACUUGACGAAGCUG
Procedure, shortened: as §1

biotinyl-Trp-oxazolone = experiment: self-aminoacylation, catalytic enhancement (BWO) (fold over background); higher = more active; k-Seq, kA / k0A0; sequences stand for … in GGGAAUGGAUCCACAUCUACGAAUUC…UUCACUGCAGACUUGACGAAGCUG
Procedure, shortened: as §1

Row | Sequence | self-aminoacylation (biotinyl-Leu-oxazolone) | self-aminoacylation (biotinyl-Ile-oxazolone) | self-aminoacylation (biotinyl-Phe-oxazolone) | self-aminoacylation (biotinyl-Val-oxazolone) | self-aminoacylation (biotinyl-Met-oxazolone) | self-aminoacylation (biotinyl-Trp-oxazolone)
1 | AAGUUUGCUAAUAGUCACAGG [Fam3.1 aminoacylation ribozyme variant] | 1.07 | 1.32 | 1.66 | 1.33 | 1.32 | 1.29
2 | AAGUUUGCUAAUAGUCACGAG [Fam3.1 aminoacylation ribozyme variant] | 0.881 | 1.26 | 1.54 | 1.22 | 1.33 | 1.34
3 | AAGUUUGCUAAUAGUCCCAAA [Fam3.1 aminoacylation ribozyme variant] | 0.897 | 1.01 | 0.94 | 0.875 | 0.889 | 1.37
4 | AAGUUUGCUAAUAGUCGAACG [Fam3.1 aminoacylation ribozyme variant] | 0.67 | 0.713 | 1.19 | 0.699 | 0.828 | 0.668
5 | AAGUUUGCUAAUAGUCGAGAG [Fam3.1 aminoacylation ribozyme variant] | 0.989 | 1.28 | 1.97 | 1.17 | 1.17 | 1.61
6 | AAGUUUGCUAAUAGUCGCACA [Fam3.1 aminoacylation ribozyme variant] | 1.15 | 1.45 | 1.64 | 1.29 | 1.37 | 1.12
7 | AAGUUUGCUAAUAGUCGCCCG [Fam3.1 aminoacylation ribozyme variant] | 3.87 | 3.76 | 9.34 | 2.69 | 2.98 | 3.76
8 | AAGUUUGCUAAUAGUCGGAUG [Fam3.1 aminoacylation ribozyme variant] | 1.08 | 1.35 | 0.931 | 1.09 | 1.46 | 1.52
9 | AAGUUUGCUAAUAGUCUCACG [Fam3.1 aminoacylation ribozyme variant] | 0.712 | 0.708 | 0.693 | 0.727 | 0.701 | 0.996
10 | AAGUUUGCUAAUAGUCUCCAG [Fam3.1 aminoacylation ribozyme variant] | 0.909 | 1.1 | 1.59 | 0.947 | 0.855 | 1.02
11 | AAGUUUGCUAAUAGUUACAAG [Fam3.1 aminoacylation ribozyme variant] | 1.15 | 1.21 | 1.95 | 1.32 | 1.93 | 1.77
12 | AAGUUUGCUAAUAGUUUCAAG [Fam3.1 aminoacylation ribozyme variant] | 1.18 | 1.25 | 1.17 | 1.15 | 1.25 | 1.24
13 | AAGUUUGCUAAUAUUCGAAAG [Fam3.1 aminoacylation ribozyme variant] | 0.818 | 0.843 | 0.874 | 0.819 | 0.841 | 0.858
14 | AAGUUUGCUAAUAUUCGCACG [Fam3.1 aminoacylation ribozyme variant] | 0.994 | 1.01 | 1.27 | 0.853 | 1.36 | 1.35
15 | AAGUUUGCUAAUAUUCGCUAG [Fam3.1 aminoacylation ribozyme variant] | 1.12 | 1.35 | 0.695 | 1.06 | 0.987 | 0.876
16 | AAGUUUGCUAAUAUUCGGAAG [Fam3.1 aminoacylation ribozyme variant] | 1.03 | 1.04 | 1.16 | 0.703 | 1.27 | 1.65
17 | AAGUUUGCUAAUCGUCCCAAG [Fam3.1 aminoacylation ribozyme variant] | 0.881 | 0.884 | 1.29 | 0.842 | 0.783 | 0.731
18 | AAGUUUGCUAAUCGUCGCAAC [Fam3.1 aminoacylation ribozyme variant] | 1.26 | 1.09 | 0.977 | 1 | 1.71 | 0.905
19 | AAGUUUGCUAAUCGUCGCUAG [Fam3.1 aminoacylation ribozyme variant] | 0.87 | 0.976 | 1.07 | 0.834 | 0.844 | 0.871
20 | AAGUUUGCUAAUGGUCGCAGG [Fam3.1 aminoacylation ribozyme variant] | 1.64 | 1.28 | 1.68 | 1.13 | 1.2 | 1.46
21 | AAGUUUGCUAAUGGUCGCAUG [Fam3.1 aminoacylation ribozyme variant] | 1.02 | 0.849 | 1.1 | 0.988 | 1.1 | 0.884
22 | AAGUUUGCUAAUUGUAGCAAG [Fam3.1 aminoacylation ribozyme variant] | 0.95 | 0.854 | 0.987 | 1.03 | 0.979 | 1.02
23 | AAGUUUGCUAAUUGUCGGAAG [Fam3.1 aminoacylation ribozyme variant] | 1.2 | 1.01 | 0.977 | 0.884 | 0.821 | 1.15
24 | AAGUUUGCUACUAGGCGCAAG [Fam3.1 aminoacylation ribozyme variant] | 0.68 | 0.653 | 1.84 | 0.64 | 0.709 | 0.564
25 | AAGUUUGCUACUAUUCGCAAG [Fam3.1 aminoacylation ribozyme variant] | 0.925 | 1.15 | 0.962 | 0.894 | 0.911 | 1.08
